Target: Beta-1 adrenergic receptor (Cavia porcellus, UniProt B0FL73)
Experiment: Antagonist activity at beta1 adrenoceptor in guinea pig atrium assessed as inhibition of isoproterenol-induced response after 20 mins
Parameters: species or system Cardiac atrium
Settings: read-out: pA2 (converted)

Amino acid sequences for entries named in this document (tags omitted).
UniProt B0FL73, whole entry: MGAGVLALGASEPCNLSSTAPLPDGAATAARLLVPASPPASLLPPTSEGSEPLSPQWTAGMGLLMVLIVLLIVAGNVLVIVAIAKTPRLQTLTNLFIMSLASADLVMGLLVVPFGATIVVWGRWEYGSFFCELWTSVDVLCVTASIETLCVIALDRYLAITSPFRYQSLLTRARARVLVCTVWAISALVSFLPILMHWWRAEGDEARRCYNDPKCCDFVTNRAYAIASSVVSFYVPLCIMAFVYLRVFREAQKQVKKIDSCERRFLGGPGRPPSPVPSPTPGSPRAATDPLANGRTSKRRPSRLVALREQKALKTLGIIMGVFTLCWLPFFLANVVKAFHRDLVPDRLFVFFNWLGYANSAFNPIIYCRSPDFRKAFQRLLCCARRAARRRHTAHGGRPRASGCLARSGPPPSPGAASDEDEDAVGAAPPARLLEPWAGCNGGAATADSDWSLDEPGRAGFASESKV

Kb: 0.0437 µM
SMILES: CC(C)NCC(O)COc1ccc(CC(N)=O)cc1 (stereo unspecified) [ATENOLOL]
